Experimental data from US11286258B2, “Nature-inspired anticancer and antibacterial motifs and pharmaceutical composition thereof” (University of Sharjah, priority 2020, dated 2022).
Some of these results come from one statement about several compounds together.

Tested on: MDR E. coli strains
Experiment: MIC, both MDR E. coli strains
Assay type: cell-based, Escherichia coli
Conditions: across ATCC BAA2469 and CDC-AR-0346
Method: Antibacterial activity: The compounds were tested for the minimum inhibitory concentrations (MIC), which is the lowest concentration of a chemical required to inhibit visible microbial growth following overnight incubation. MIC values were determined using broth microdilution method according to the Clinical and Laboratory Standards Institute guidelines (CLSI, 2015, M07-A10). Mueller-Hinton broth was used as a culture medium in all the experiments. Exponentially growing bacterial cells were prepared in Mueller-Hinton broth at a concentration of approximately 5×10^5 CFU/mL. Two-fold serial dilutions of the test compound (8 concentrations ranged between 100-0.78 μg/mL) were tested. […] In each experiment, solvent (DMSO) was used as a negative control, un-treated control (composing of bacteria in Mueller-Hinton broth) was used as a growth control, blank (culture media alone) was used as sterility control. The 96-well microplate with the test compounds was incubated overnight at 37° C. Turbidity in wells indicated bacterial growth.
The compounds were tested on six MDR Gram-positive bacteria including three clinical isolates of methicillin-resistant Staphylococcus aureus (MRSA-1, MRSA-2 and MRSA-3) and three reference MRSA strains (ATCC33591, ATCC33592 and ATCC700699). […]

Gentamicin [reference compound]
MIC, both MDR E. coli strains: > 1000 µg/mL
